Measured values reported in PubChem BioAssay AID504444 (National Center for Advancing Translational Sciences (NCATS), 2011).
Where “and” joins values, the source holds several entries; their conditions need not be identical. Equal values may be shown once. In all, about 360,000 compounds went through this assay and about 7,500 (2.1%) were called active. The shares of active, inactive and inconclusive entries below differ from those in the screen. Calls come from the whole dose curve; as a rule, active = well fitted inhibition curve with a large enough effect; inconclusive = small, poorly fitted or top-dose-only effect, or effect the other way; inactive = flat fitted curve, though single readings scatter. Potencies of inconclusive entries are doubtful fits and often do not repeat.

Experiment: Nrf2 qHTS screen for inhibitors; note: nearly all actives have a fitted effect of over 60% in size
Settings: A549 ARE-Fluc reporter, luciferase luminescence, 18-24 h; activity change, negative = inhibition: at 46 µM (top of the series)
Method in brief: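 Two sequential reads on A549 ARE_Fluc cells exposed to compound for 18-24 h: a CellTiter-Fluor fluorescence read for viability, then a luciferase luminescence read for Nrf2/ARE activity.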
% is set by controls: 0 for no effect and ±100 for the full control effect; potency is the fitted concentration of half-maximal effect.

Structure (SMILES) | Potency | activity change, negative = inhibition
Cc1cccc(OCCSc2nc3ccc(NC(=O)c4cccs4)cc3s2)c1 | active: 23.1 µM | 
O=C(c1ccco1)N1CCN(C(=O)C2CCCN(S(=O)(=O)Cc3ccccc3)C2)CC1 (centres undefined) |  | inactive: -10.6%
CS(=O)(=O)N1CCC(n2c(C(F)(F)F)nc3cccnc32)CC1 | inconclusive: 13 µM [activator, partial curve, poor fit] | 
O=Cc1cc(N=Nc2cccc(C(=O)O)c2)ccc1O | inconclusive: 13 µM [activator, partial curve, poor fit] | 
O=C(CCCc1cccs1)Nc1nc2c(s1)CCCC2 | inconclusive: 3.66 µM [activator, full curve] | 
COc1ccc2c(c1)C1OCCC1C(c1ccco1)N2 (centres undefined) | inconclusive: 9.2 µM [falling, partial curve, poor fit] | 
Cc1cc(=O)[nH]c(N/N=C/c2cc(C)n(-c3ccccc3)c2C)n1 | inconclusive: 2.91 µM [activator, partial curve, poor fit] | 
COC(=O)c1ccc2c(=O)[nH]c(COC(=O)c3c(-c4ccccc4Cl)noc3C)nc2c1 | inconclusive: 18.4 µM [falling, single point] | 
O=C(Nc1ccc(F)cc1)c1cc2c(s1)CCCC2 | inconclusive: 9.2 µM [activator, partial curve] | 
CC1=NN(C(=S)Nc2ccccc2)C(c2ccccc2)C1 (centres undefined) | inconclusive: 4.11 µM [activator, partial curve, poor fit] | 
CNc1oc(-c2ccccc2F)nc1S(=O)(=O)c1ccc(C)cc1 | active: 25.9 µM | 
CN(Cc1ccc(F)cc1)C(=O)c1cccc(OCc2ccccc2)c1 | inconclusive: 29.1 µM [falling, single point] | 
O=C(CSCc1nc2ccccc2[nH]1)N1CCN(c2ccc(F)cc2)CC1 | inconclusive: 20.6 µM [falling, single point] | 
COc1cccc(/C=N/NC(=O)c2ccc(=O)n(C)c2)c1O | inconclusive: 29.1 µM [falling, single point] | 
O=C(Cc1ccccc1)NC(NC(=S)Nc1cc(Cl)ccc1Cl)C(Cl)(Cl)Cl (centres undefined) | inconclusive: 0.82 µM [falling, partial curve, poor fit] | 
O=C1/C(=C/c2cccnc2)CCC/C1=C\c1cccnc1 |  | inactive: 3.66%
CCn1c2ccccc2c2cc(NC(=O)C(C)Oc3ccccc3)ccc21 (centres undefined) | inconclusive: 14.6 µM [falling, partial curve, poor fit] | 
CN(C)S(=O)(=O)N1CCC(Oc2cccc(C(=O)NC3CCCCC3)c2)CC1 | inconclusive: 23.1 µM [falling, partial curve, poor fit] | 
CCC1CCCCN1CCCNC(=O)C1CCCN(c2ncnc3c2nc2n3CCCCC2)C1 (centres undefined) | inconclusive: 9.2 µM [activator, partial curve, poor fit] | 
Cc1nc(N2CCN(S(=O)(=O)c3ccccc3)CC2)c2cc(-c3ccccc3)sc2n1 |  | inactive: 8.51%
CC(=O)Oc1ccc(-c2ccc(C(=O)OCC(=O)N(C)CC(=O)Nc3ccccc3Cl)cc2)cc1 | inconclusive: 18.4 µM [falling, partial curve, poor fit] | 
NS(=O)(=O)c1ccc(-c2ccc(C=C3C(=O)c4ccccc4C3=O)o2)cc1 |  | inactive: 4.13%

4 records picked at random from those above:
Structure (SMILES) | Potency | activity change, negative = inhibition
O=C(c1ccco1)N1CCN(C(=O)C2CCCN(S(=O)(=O)Cc3ccccc3)C2)CC1 (centres undefined) |  | inactive: -10.6%
O=Cc1cc(N=Nc2cccc(C(=O)O)c2)ccc1O | inconclusive: 13 µM [activator, partial curve, poor fit] | 
COc1cccc(/C=N/NC(=O)c2ccc(=O)n(C)c2)c1O | inconclusive: 29.1 µM [falling, single point] | 
Cc1cccc(OCCSc2nc3ccc(NC(=O)c4cccs4)cc3s2)c1 | active: 23.1 µM | 

Later entries

Structure (SMILES) | Potency | activity change, negative = inhibition
CCN(CC(=O)NCc1ccc(Cl)cc1)C(=O)c1cc(S(=O)(=O)N2CCOCC2)ccc1C | inconclusive: 29.1 µM [falling, single point] | 
Cc1ccc(OCc2nnc(SCC(=O)c3cccc([N+](=O)[O-])c3)n2C)cc1 |  | inactive: -39%
COC(=O)c1ccc(NC(=O)CCN2C(=O)CSC2=O)cc1 | inconclusive: 29.1 µM [activator, single point] | 
CCOC(=O)c1sc(C)c2c1NC(c1ccc(N(C)C)cc1)NC2=O (centres undefined) | inconclusive: 20.6 µM [falling, partial curve] | 
CCOC(=O)C1CCN(C(=O)CCn2c(=O)[nH]c3ccsc3c2=O)CC1 | inconclusive: 23.1 µM [activator, single point] | 
C=C(C)CNC(=S)N/N=C1\CCCCc2ccccc21 | inconclusive: 32.6 µM [falling, single point] | 
CC(=O)Nc1cccc(NC(=O)COc2ccccc2C)c1 | inconclusive: 29.1 µM [falling, partial curve, poor fit] | 
CCN1CCCC1CNC(=O)c1cc(COc2ccc(C)c(C)c2)on1 (centres undefined) | inconclusive: 18.4 µM [activator, single point] | 
O=C(Nc1cccc2cccnc12)c1cccc2ccccc12 | inactive and inconclusive: 206 nM [activator, full curve, poor fit] | 
CCOC(=O)c1ccc(NC(=O)c2csc3c2CCCC3)cc1 | inconclusive: 3.66 µM [activator, single point] | 
CC(C)NC(=S)N/N=C1\CCCCC1C1CCCCC1 (centres undefined) | inconclusive: 29.1 µM [falling, single point] | 
COc1cccc(N2CCN(C(=O)c3cc4c(=O)n(Cc5cccs5)ccc4nc3C)CC2)c1 | inconclusive: 16.4 µM [falling, single point] | 
COc1cc(C(=O)NCCCN2CCCC2=O)ccc1OCc1ccc(Cl)cc1Cl | inconclusive: 13 µM [falling, partial curve, poor fit] | 
O=C(NNc1cccc(Cl)c1)c1cccnc1Cl | inconclusive: 6.51 µM [falling, partial curve, poor fit] | 
C=CCNC(=O)c1ccccc1NC(=O)c1ccc(Cl)c(S(=O)(=O)Nc2cc(C)ccc2C)c1 | inconclusive: 23.1 µM [falling, single point] | 
CCc1ccc(C(=O)COC(=O)c2cc([N+](=O)[O-])ccc2NCCO)cc1 | active: 7.31 µM | 
CC(=O)Nc1ccc(NC2=Nc3ccccc3N3C2=Nc2c(c(C)nn2-c2ccccc2)C3c2ccccc2)cc1 (centres undefined) | inconclusive: 25.9 µM [falling, single point] | 
O=C(CNC(=O)c1ccc(S(=O)(=O)N2CCCC2)cc1)N/N=C/c1ccccc1Cl | inconclusive: 13 µM [falling, single point] | 
Cc1nc2ccccn2c(=O)c1NC(=O)c1cccs1 | inconclusive: 13 µM [activator, partial curve] | 
COc1ccc(/C=C(\C#N)c2c[nH]c3ccccc23)cc1 | inconclusive: 14.6 µM [activator, partial curve] | 
CSc1ncc(C(=O)NCc2ccc(Cl)cc2)c(C(F)(F)F)n1 | inconclusive: 29.1 µM [activator, single point] | 
CN1CCN(S(=O)(=O)c2cccc(C(=O)Nc3cccc([N+](=O)[O-])c3)c2)CC1 | inconclusive: 0.82 µM [falling, full curve, poor fit] | 

Structure (SMILES) | Potency | activity change, negative = inhibition
Cc1ccc(CSc2nc3ncccc3[nH]2)cc1 | inconclusive: 29.1 µM [activator, single point] | 
Cc1nn(-c2ccccc2)c(OC(=O)c2ccc(F)cc2)c1S(=O)(=O)c1ccccc1 |  | inactive: -0.423%
O=C(NCCN1Cc2ccccc2C1=O)c1cccs1 | inconclusive: 9.2 µM [activator, partial curve] | 
CC(=O)N1CC2(NC(=O)c3ccccc3N2)c2ccccc21 (centres undefined) |  | inactive: -5.49%
CCc1ccccc1NC(=O)CN1CCN(C(=O)c2ccc(OCc3cn4ccccc4n3)cc2)CC1 | inconclusive: 25.9 µM [falling, partial curve] | 
COc1ccc(C(=O)COC(=O)c2ccccn2)c(OC)c1 | inconclusive: 4.61 µM [activator, single point] | 
CC(=O)N1c2ccc(S(=O)(=O)NCC3CCC(C(=O)Nc4ccc(C)cn4)CC3)cc2CC1C (centres undefined) | inconclusive: 23.1 µM [falling, partial curve, poor fit] | 
COc1cc(/C=C2\CC/C(=C\c3ccc(OCCO)c(OC)c3)C2=O)ccc1OCCO |  | inactive: -4.4%
CNS(=O)(=O)c1ccc(N2CCCC2)c([N+](=O)[O-])c1 |  | inactive: 0.502%
CC(C)Oc1ccc(CNC(=O)Nc2ccc3c(c2)N(C)C(=O)c2ccccc2S3)cc1 | inconclusive: 13 µM [activator, partial curve] | 
CC1=CC(C)[C@H](/C=N/n2c(=O)[nH]c3c([nH]c4ccc(C)cc43)c2=O)C(C)C1 (some centres undefined) | inconclusive: 29.1 µM [falling, single point] | 
Cc1ccc(S(=O)(=O)CNC(=S)c2ccc3ccccc3c2)cc1 |  | inactive: 2.66%
CCOc1ccc(NC(=O)Nc2ccccc2SC)cc1 | inconclusive: 1.84 µM [activator, partial curve, poor fit] | 
COc1ccc(N2CCN(S(=O)(=O)CCNC(=O)COc3cccc(OC)c3)CC2)cc1 |  | inactive: -13%
CC(C)CN(C(=O)COC(=O)CCCc1c[nH]c2ccccc12)c1c(N)n(Cc2ccccc2)c(=O)[nH]c1=O | inconclusive: 25.9 µM [falling, partial curve, poor fit] | 
Cc1c(C(=O)N/N=C/c2cccs2)nnn1-c1nonc1N | inconclusive: 18.4 µM [activator, partial curve, poor fit] | 
Cc1ccc(S(=O)(=O)Nc2cnc3ccccc3c2)cc1 | inconclusive: 18.4 µM [falling, single point] | 
C=CCN(c1ccccc1Cl)S(=O)(=O)c1cccc(C(=O)NCCc2ccc(OC)cc2)c1 | inconclusive: 5.8 µM [falling, full curve] | 
Cc1cccc(Cn2c(SCc3ccc(C(=O)N4CCC(C)CC4)cc3)nc3ccncc32)c1 | inconclusive: 23.1 µM [falling, single point] | 
Cc1nn(-c2ncc(C(F)(F)F)cc2Cl)c(=O)n1-c1ccccc1F | inconclusive: 29.1 µM [activator, single point] | 
